In ChEMBL document CHEMBL4513143, “CO-ADD screening of University of Natural Resources and Life (Austria) compounds”:
The list shows a part of the results. Results with a measured potency or affinity are listed apart.

Each compound was assayed on Acinetobacter baumannii. Conditions: Concentration 32 ug.mL-1; ASSAY_TEST Inhibition of Bacterial Growth; detection method Absorption (OD600); MEDIA CAMHB; plate type 384well; NBS; CORNING #3640; time 18 hr.

Row | Structure (SMILES) | Inhibition
1 | CC(=O)CC1O[C@H]([C@@H](O)CO)[C@@H](O)[C@H](O)[C@@H]1O (stereo not given in full) | 2.39%
2 | N.O=C(O)C1(O)C[C@@H](O)[C@H](O)[C@@H]([C@@H](O)CO)O1 (stereo not given in full) | -0.11%
3 | OC[C@@H](O)[C@H]1OC(O)C[C@@H](O)[C@@H]1O (stereo not given in full) | -0.79%
4 | CCN(CC)CC.O=P(O)(O)OC1C[C@@H](O)[C@H](O)[C@@H]([C@H](O)CO)O1 (stereo not given in full) | -2.35%
5 | CCN(CC)CC.C[C@@H](CC1O[C@H]([C@@H](O)CO)[C@@H](O)[C@H](O)[C@@H]1O)OP(=O)(O)OC[C@H]1O[C@@H](n2cnc3c(N)ncnc32)[C@H](O)[C@@H]1O (stereo not given in full) | 4.84%
6 | CCN(CC)CC.C[C@@H](CC1O[C@H]([C@H](O)CO)[C@@H](O)[C@H](O)[C@@H]1O)OP(=O)(O)OC[C@H]1O[C@@H](n2cnc3c(N)ncnc32)[C@H](O)[C@@H]1O (stereo not given in full) | 10.62%
7 | CCN(CC)CC.C[C@H](CC1O[C@H]([C@H](O)CO)[C@@H](O)[C@H](O)[C@@H]1O)OP(=O)(O)OC[C@H]1O[C@@H](n2cnc3c(N)ncnc32)[C@H](O)[C@@H]1O (stereo not given in full) | 0.75%
8 | CCN(CC)CC.C[C@@H](CC1O[C@H]([C@@H](O)CO)[C@@H](O)[C@H](O)[C@@H]1O)OP(=O)(O)O (stereo not given in full) | -2.2%
9 | CCN(CC)CC.C[C@H](CC1O[C@H]([C@@H](O)CO)[C@@H](O)[C@H](O)[C@@H]1O)OP(=O)(O)O (stereo not given in full) | -1.67%
10 | CCN(CC)CC.C[C@H](CC1O[C@H]([C@@H](O)CO)[C@@H](O)[C@H](O)[C@@H]1O)OP(=O)(O)OC[C@H]1O[C@@H](n2cnc3c(N)ncnc32)[C@H](O)[C@@H]1O (stereo not given in full) | -0.37%

Quoted from the listing.
Inhibition, CC(=O)CC1O[C@H]([C@@H](O)CO)[C@@H](O)[C@H](O)[C@@H]1O (stereo not given in full) is entered as 2.39%
Inhibition, CCN(CC)CC.C[C@@H](CC1O[C@H]([C@H](O)CO)[C@@H](O)[C@H](O)[C@@H]1O)OP(=O)(O)OC[C@H]1O[C@@H](n2cnc3c(N)ncnc32)[C@H](O)[C@@H]1O (stereo not given in full) is entered as 10.62%
